{"source": "paper doi:10.1101/2021.08.04.455049", "binders": {"B1": {"name": "Respiratory syncytial virus matrix protein (M) (protein, UniProt P0DOE7 1-256)", "chain": "METYVNKLHEGSTYTAAVQYNVLEKDDDPASLTIWVPMFQSSMPADLLIKELANVNILVKQISTPKGPSLRVMINSRSAVLAQMPSKFTICANVSLDERSKLAYDVTTPCEIKACSLTCLKSKNMLTTVKDLTMKTLNPTHDIIALCEFENIVTSKKVIIPTYLRSISVRNKDLNTLENITTTEFKNAITNAKIIPYSGLLLVITVTDNKGAFKYIKPQSQFIVDLGAYLEKESIYYVTTNWKHTATRFAIKPMED"}}, "target": "Respiratory syncytial virus matrix protein (M) (Human respiratory syncytial virus (strain A2)) (UniProt P0DOE7)", "assay": "cryo-EM structure", "note": "No constants are given. Whether binding was seen depends on the method and setting. Some results given as binding are weak or reduced against the parent protein; the word gives no strength."}
{"binder": "B1", "values": [{"measurement": "binding", "result": "binds"}]}
